Test results reported in US20260102359A1, “COMBINATION TREATMENT OF DERMAL AND TRANSDERMAL FIBROTIC DISEASES, DISORDERS AND ASSOCIATED PAIN AND INFLAMMATION” (ERESINA, LLC, priority 2022, published 2026).

Tested on: hDMFa myofibroblast cells
Parameters: key to the marks not given beside the values

## O=C1OCCN1/N=C/c1ccc([N+](=O)[O-])o1 [Cmpd 475, Furazolidone]
  Compound Myofibroblast Cytotoxicity Activity: ++

## Cl.NCCC[C@H](N)C(=O)O [Cmpd 551, L(+)-Ornithine hydrochloride]
  Compound Myofibroblast Cytotoxicity Activity: +++++
